No constants are given. Whether binding was seen depends on the method and setting. For part of these data: Binding seen in cells or lysates may run through a third protein. Some entries that bind do so weakly or less than the wild type. Each block holds one binder with its values, some of them ahead of it.
How the values were obtained:
[1] = biological target: T1, Eya2 Eya Domain (ED) (human) (UniProt O00167); assay: gel filtration co-elution, SDS-PAGE of fractions
T1 sequence (looked up): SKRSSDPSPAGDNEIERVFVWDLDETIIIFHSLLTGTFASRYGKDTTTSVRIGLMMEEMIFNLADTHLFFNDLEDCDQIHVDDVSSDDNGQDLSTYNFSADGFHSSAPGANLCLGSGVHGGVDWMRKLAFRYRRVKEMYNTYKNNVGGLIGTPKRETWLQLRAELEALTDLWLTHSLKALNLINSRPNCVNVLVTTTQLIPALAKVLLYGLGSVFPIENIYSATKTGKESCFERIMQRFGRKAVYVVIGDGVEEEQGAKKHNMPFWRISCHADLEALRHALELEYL

[2] = biological target: T1, Eya2 Eya Domain (ED) (human); assay: ELISA, plate coated with Eya2 ED, Six1 detected with anti-Six1 antibody and HRP secondary antibody
[3] = biological target: T2, Six1 (UniProt Q15475); assay: gel filtration co-elution, SDS-PAGE of fractions
T2 sequence (looked up): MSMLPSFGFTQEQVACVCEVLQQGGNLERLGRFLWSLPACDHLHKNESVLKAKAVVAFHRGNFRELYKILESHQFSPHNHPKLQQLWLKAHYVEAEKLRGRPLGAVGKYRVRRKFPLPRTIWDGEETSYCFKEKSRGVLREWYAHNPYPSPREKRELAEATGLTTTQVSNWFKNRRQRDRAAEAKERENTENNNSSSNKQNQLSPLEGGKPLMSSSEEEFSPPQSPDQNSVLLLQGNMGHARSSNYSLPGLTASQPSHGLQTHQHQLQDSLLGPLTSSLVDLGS

binding [1]: binds
binding [2]: binds
B1: Six1 (protein, UniProt Q15475 1-284, looked up)
chain: T2 sequence (looked up)

binding [3]: binds
B2: Eya2 Eya Domain (ED) (enzyme, human, UniProt O00167 253-538, looked up)
chain: T1 sequence (looked up)

— US20110038791A1, “METHODS FOR INHIBITING SIX1 AND EYA PROTEINS” (priority 2008, published 2011)
